The other results are listed elsewhere or left out.

Sequences of proteins named here, by UniProt entry; tags and fusion partners are left off. A change or cut given only in a name is not applied to a line headed by its entry.
UniProt Q9ULZ3, whole entry, looked up: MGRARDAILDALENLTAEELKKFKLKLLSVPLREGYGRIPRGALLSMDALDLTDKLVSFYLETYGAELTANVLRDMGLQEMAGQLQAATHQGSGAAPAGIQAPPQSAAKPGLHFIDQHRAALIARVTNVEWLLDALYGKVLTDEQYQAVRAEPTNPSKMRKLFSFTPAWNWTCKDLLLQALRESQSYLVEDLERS
UniProt O14818: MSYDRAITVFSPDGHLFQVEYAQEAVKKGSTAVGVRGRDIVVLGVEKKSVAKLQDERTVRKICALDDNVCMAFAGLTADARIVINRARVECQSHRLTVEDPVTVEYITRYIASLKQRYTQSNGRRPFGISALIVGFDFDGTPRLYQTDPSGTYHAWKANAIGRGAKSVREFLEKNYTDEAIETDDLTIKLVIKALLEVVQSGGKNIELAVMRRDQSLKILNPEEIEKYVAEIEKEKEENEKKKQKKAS
UniProt Q9BVG9: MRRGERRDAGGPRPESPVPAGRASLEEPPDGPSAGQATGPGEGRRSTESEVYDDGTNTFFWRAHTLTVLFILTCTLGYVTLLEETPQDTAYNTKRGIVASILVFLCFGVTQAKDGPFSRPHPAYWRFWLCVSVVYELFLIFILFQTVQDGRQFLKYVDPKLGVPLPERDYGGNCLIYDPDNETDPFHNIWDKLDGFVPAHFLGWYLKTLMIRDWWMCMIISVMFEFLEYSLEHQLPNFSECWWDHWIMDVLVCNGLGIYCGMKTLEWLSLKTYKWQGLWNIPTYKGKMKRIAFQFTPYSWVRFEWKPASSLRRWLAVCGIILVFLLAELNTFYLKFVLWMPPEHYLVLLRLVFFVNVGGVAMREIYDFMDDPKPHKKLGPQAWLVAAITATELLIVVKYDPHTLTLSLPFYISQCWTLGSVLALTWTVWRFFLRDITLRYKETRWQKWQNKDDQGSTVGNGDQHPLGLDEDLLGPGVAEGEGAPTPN
UniProt Q6ZRP7: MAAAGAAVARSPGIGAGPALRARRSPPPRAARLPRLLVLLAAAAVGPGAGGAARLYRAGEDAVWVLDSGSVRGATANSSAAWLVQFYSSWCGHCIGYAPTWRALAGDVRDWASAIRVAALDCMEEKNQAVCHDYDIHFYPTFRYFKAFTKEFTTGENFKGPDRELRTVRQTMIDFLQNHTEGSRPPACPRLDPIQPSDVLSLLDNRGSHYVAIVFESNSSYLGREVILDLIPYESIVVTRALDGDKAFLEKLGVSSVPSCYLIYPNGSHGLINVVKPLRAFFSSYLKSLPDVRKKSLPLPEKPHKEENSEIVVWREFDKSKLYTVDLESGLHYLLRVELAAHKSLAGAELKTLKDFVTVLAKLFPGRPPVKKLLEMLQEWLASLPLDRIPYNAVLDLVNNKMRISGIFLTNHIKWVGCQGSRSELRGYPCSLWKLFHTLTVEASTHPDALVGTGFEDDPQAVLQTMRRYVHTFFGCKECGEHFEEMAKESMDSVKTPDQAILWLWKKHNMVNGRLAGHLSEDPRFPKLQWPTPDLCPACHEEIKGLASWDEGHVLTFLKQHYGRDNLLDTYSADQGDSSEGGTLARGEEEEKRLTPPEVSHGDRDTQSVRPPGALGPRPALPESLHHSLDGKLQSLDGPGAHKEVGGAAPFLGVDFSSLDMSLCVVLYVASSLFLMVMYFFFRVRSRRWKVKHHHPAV
UniProt Q13308: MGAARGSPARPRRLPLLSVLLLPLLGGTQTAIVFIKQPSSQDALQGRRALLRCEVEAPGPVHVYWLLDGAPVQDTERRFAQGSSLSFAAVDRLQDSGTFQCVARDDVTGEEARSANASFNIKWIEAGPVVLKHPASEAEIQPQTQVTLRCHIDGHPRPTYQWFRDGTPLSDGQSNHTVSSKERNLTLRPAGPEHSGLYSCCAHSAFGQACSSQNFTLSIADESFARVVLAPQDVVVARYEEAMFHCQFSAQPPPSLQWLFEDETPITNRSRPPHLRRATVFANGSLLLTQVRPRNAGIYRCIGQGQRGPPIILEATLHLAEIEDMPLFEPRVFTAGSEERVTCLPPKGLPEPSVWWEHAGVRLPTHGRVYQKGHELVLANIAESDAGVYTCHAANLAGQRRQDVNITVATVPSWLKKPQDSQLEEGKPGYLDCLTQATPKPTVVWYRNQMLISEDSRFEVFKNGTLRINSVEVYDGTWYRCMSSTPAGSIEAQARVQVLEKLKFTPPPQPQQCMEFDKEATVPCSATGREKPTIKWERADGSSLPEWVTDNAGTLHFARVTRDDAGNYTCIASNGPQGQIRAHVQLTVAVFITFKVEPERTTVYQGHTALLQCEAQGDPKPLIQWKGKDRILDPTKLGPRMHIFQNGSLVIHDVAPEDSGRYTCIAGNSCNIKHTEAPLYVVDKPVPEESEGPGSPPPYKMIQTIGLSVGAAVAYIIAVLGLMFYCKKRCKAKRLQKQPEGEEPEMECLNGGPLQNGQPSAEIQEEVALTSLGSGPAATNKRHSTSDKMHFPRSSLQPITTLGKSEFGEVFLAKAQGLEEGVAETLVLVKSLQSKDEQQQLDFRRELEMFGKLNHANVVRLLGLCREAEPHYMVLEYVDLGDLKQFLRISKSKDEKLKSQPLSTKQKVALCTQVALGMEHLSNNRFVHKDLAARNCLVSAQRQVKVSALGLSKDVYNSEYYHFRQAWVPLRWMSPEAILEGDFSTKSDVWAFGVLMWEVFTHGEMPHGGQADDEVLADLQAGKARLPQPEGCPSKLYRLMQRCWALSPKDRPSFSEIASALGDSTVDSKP
UniProt Q9BRP8: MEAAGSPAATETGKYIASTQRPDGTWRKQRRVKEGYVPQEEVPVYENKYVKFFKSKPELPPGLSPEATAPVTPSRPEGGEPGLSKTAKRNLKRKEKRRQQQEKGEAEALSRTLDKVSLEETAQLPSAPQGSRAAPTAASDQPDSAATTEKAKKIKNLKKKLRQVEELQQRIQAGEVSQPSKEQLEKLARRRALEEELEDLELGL
UniProt P25786: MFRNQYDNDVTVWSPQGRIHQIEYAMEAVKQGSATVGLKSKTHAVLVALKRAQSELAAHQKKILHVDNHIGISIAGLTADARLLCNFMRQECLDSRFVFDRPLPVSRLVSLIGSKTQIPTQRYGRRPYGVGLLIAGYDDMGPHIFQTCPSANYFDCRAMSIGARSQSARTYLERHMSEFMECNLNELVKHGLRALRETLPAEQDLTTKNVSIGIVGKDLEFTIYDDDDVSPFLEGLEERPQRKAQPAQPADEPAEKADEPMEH
UniProt P28066: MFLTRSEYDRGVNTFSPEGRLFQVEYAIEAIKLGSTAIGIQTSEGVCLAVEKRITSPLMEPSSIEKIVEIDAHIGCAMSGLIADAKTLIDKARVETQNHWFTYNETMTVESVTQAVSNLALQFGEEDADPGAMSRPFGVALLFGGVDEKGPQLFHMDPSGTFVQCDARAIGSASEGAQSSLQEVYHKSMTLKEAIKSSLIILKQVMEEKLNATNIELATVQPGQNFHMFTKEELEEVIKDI
UniProt P49023, whole entry, looked up: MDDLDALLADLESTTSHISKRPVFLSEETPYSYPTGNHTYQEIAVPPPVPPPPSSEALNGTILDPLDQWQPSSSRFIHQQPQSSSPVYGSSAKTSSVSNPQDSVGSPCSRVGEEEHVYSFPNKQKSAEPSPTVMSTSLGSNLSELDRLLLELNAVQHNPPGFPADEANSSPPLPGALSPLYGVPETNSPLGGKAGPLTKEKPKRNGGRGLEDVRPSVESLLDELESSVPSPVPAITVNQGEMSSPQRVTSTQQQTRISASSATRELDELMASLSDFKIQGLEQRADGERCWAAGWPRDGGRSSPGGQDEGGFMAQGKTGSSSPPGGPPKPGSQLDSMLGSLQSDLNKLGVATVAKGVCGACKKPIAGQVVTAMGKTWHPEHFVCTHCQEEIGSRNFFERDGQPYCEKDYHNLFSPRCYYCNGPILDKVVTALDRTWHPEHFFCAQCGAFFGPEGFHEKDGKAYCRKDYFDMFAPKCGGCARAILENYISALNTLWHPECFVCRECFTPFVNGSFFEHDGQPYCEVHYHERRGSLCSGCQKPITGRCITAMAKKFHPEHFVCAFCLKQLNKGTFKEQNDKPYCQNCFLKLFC
UniProt P07602: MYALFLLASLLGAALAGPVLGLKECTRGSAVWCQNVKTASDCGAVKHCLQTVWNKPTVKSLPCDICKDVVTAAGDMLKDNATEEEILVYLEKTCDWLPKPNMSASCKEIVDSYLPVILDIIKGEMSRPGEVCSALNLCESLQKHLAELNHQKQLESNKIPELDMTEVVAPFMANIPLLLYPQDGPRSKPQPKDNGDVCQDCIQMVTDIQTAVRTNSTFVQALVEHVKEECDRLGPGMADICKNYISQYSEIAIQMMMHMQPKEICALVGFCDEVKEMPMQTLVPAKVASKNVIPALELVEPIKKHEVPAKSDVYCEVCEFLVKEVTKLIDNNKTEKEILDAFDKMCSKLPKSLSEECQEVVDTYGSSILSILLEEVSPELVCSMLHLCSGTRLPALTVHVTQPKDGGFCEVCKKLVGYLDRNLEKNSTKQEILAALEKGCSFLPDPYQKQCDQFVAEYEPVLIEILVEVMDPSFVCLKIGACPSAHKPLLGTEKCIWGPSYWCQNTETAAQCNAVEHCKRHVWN
UniProt P20962: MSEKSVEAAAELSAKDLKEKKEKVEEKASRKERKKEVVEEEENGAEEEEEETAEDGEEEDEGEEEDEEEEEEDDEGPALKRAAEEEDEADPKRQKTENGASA
UniProt Q8TAA3: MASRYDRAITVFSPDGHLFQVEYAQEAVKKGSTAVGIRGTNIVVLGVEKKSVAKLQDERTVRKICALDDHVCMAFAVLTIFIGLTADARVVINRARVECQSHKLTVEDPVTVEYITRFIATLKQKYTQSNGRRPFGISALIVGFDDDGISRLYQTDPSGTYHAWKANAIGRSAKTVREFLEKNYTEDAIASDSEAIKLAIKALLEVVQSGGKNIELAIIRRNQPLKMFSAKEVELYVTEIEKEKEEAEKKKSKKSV
UniProt P09417: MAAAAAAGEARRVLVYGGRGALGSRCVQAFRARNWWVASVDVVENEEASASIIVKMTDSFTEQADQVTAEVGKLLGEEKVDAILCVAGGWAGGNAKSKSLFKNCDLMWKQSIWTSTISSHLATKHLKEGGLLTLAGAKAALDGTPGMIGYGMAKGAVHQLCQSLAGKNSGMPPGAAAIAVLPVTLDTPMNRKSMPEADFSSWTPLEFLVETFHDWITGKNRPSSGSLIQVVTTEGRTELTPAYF
UniProt Q9UL46, whole entry, looked up: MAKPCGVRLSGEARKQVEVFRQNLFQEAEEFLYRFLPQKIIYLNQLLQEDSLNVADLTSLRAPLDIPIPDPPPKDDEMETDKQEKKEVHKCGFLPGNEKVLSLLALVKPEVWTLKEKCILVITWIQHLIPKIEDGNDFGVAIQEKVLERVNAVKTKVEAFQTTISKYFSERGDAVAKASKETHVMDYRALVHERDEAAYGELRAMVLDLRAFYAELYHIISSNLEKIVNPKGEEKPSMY
UniProt P55036: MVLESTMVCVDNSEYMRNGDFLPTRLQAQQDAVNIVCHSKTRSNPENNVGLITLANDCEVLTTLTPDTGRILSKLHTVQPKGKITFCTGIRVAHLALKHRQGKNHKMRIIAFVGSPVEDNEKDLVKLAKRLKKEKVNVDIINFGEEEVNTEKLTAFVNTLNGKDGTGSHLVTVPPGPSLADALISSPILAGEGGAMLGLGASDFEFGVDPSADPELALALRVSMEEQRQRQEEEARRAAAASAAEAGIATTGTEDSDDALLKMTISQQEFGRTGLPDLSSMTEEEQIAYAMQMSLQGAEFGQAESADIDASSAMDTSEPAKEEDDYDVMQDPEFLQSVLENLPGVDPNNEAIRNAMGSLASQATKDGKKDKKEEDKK
UniProt Q9H0K6: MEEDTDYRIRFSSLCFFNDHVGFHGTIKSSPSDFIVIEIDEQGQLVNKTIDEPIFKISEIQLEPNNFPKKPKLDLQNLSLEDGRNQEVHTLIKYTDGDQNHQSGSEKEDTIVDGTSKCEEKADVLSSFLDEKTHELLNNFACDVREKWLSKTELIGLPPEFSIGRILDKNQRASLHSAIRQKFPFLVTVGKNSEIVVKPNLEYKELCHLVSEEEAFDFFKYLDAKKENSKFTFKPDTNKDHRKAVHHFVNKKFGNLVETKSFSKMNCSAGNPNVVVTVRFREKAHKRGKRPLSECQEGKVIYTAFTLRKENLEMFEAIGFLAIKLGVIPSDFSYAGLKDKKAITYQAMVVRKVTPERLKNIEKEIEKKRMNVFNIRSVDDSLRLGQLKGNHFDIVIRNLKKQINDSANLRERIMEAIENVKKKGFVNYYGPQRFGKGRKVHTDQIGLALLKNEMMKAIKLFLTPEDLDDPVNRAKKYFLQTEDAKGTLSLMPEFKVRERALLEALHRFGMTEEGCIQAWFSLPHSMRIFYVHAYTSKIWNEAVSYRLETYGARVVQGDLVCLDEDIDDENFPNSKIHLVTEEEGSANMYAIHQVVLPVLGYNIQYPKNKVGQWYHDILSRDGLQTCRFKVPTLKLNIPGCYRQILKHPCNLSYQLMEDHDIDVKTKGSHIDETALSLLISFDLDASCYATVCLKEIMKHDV
UniProt Q5JS54: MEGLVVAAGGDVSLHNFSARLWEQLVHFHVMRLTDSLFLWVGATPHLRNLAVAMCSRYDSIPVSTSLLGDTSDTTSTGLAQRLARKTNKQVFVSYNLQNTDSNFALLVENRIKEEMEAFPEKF

Compound in one test: C1=CC2=C(C=CC(=C2)/C=C\3/C(=O)NC(=NCC4=CC=CS4)S3)N=C1
Nature of the test: log2 fold change, soluble protein after heating vs DMSO (PISA); higher = thermal stabilisation; K562 cells, 10 uM, 30 min; active = over 0.2 and 3.5 SD of the protein, either way, in both replicates (recomputed). Put shortly: (§1)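 K562 cells at 2×10^6 cells/mL were given 10 μM compound for 30 min. Aliquots then went through 3 min of heating across 48°C-58°C, were pooled, and were extracted in PBS with 0.5% NP-40 at 4°C, and the supernatant after 21,000xg for 90 min was quantified by TMTpro 16plex LC-MS/MS with channel sums equalised. Thermal stability relative to control samples, from duplicates, is given as log2 fold change.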
On to PYCARD (UniProt Q9ULZ3), for which the log2 fold change is inactive: 0.015.
On the same count and under the same terms, under PSMA7 (UniProt O14818) stands inactive: -0.042.
As to PTDSS2 (UniProt Q9BVG9), the log2 fold change is inactive: 0.066.
QSOX2 (UniProt Q6ZRP7): the log2 fold change is inactive: 0.013.
On the same count and under the same terms, under PTK7 isoform 6 (UniProt Q13308) stands inactive: 0.039; under PYM1 (UniProt Q9BRP8), inactive: -0.028; under PSMA1 isoform 2 (UniProt P25786), inactive: -0.078.
On to PSMA5 (UniProt P28066), for which the log2 fold change is inactive: -0.036.
Take PTCD3 (UniProt Q96EY7): the log2 fold change is inactive: -0.08.
Consider PXN (UniProt P49023), for which the log2 fold change is inactive: -0.078.
For PSAP isoform 3 (UniProt P07602), the log2 fold change is inactive: 0.008.

Compound in another test: C1=CC2=NC=CN=C2C=C1/C=C/3\C(=O)NC(=O)S3
The description is as above. Put shortly:
as §1
Take PXMP2 (UniProt Q9NR77): the log2 fold change was inactive: -0.001.
In the case of PSPH (UniProt P78330), the log2 fold change is inactive: 0.031.
Consider QTRT1 (UniProt Q9BXR0), for which the log2 fold change is inactive: 0.013.
On the same count and under the same terms, under PUS7 isoform 2 (UniProt Q96PZ0) stands inactive: -0.014; under PZP (UniProt P20742), inactive: 0.011; under QPCTL (UniProt Q9NXS2), inactive: -0.035.
Turning to PTMS (UniProt P20962), the log2 fold change was inactive: 0.068.
Turning to PWP2 (UniProt Q15269), the log2 fold change is inactive: 0.032.
In the case of PSMA8 (UniProt Q8TAA3), the log2 fold change was inactive: -0.018.
QDPR (UniProt P09417): the log2 fold change was inactive: -0.006.
On the same count and under the same terms, under PSME1 (UniProt Q06323) stands inactive: 0.031.
On the same count and under the same terms, under PSME2 (UniProt Q9UL46) stands inactive: 0.02; under PRTFDC1 (UniProt Q9NRG1), inactive: -0.006; under PSMB1 (UniProt P20618), inactive: -0.02.
Turning to PTPRA (UniProt P18433), the log2 fold change was inactive: 0.072.
Consider PSMD4 (UniProt P55036), for which the log2 fold change is inactive: -0.062.
Same read-out and setting: under PUS7L (UniProt Q9H0K6) stands inactive: 0.
Regarding PSMD14 (UniProt O00487), the log2 fold change was inactive: 0.012.
Still for that read-out and setting: under PUM2 (UniProt Q8TB72) stands inactive: -0.073; under PTPRC (UniProt P08575), inactive: 0.007.
On the same count and under the same terms, under QTRT2 isoform 4 (UniProt Q9H974) stands inactive: -0.04.
For PUS10 (UniProt Q3MIT2), the log2 fold change was inactive: 0.067.
On to PSMG4 isoform 2 (UniProt Q5JS54), for which the log2 fold change was inactive: 0.079.
As to PYCARD (UniProt Q9ULZ3), the log2 fold change was inactive: 0.007.
On the same count and under the same terms, under PSMA7 (UniProt O14818) stands inactive: -0.003; under PTDSS2 (UniProt Q9BVG9), inactive: 0.094; under QSOX2 (UniProt Q6ZRP7), inactive: 0.009.
Regarding PTK7 isoform 6 (UniProt Q13308), the log2 fold change is inactive: 0.069.
PYM1 (UniProt Q9BRP8): the log2 fold change was inactive: -0.015.
As for PSMA1 isoform 2 (UniProt P25786), the log2 fold change is inactive: 0.007.
In the case of PSMA5 (UniProt P28066), the log2 fold change was inactive: -0.004.
For PTCD3 (UniProt Q96EY7), the log2 fold change was inactive: -0.018.
On the same count and under the same terms, under PXN (UniProt P49023) stands inactive: 0.053; under PSAP isoform 3 (UniProt P07602), inactive: 0.06.

Compound in the next test: C1=CC=C(C=C1)C2=NC(=C(N2)C3=CC=NC=C3)C4=CC(=C(C=C4)Cl)O
The test is described as above. Put shortly: as §1
With PXMP2 (UniProt Q9NR77), the log2 fold change was inactive: 0.043.
On to PSPH (UniProt P78330), for which the log2 fold change was inactive: -0.021.
For QTRT1 (UniProt Q9BXR0), the log2 fold change was inactive: 0.022.
For the target PUS7 isoform 2 (UniProt Q96PZ0), the log2 fold change was inactive: 0.006.
In the case of PZP (UniProt P20742), the log2 fold change is inactive: 0.095.
Still for that read-out and setting: under QPCTL (UniProt Q9NXS2) stands inactive: -0.054.
Regarding PTMS (UniProt P20962), the log2 fold change is inactive: -0.008.
On to PWP2 (UniProt Q15269), for which the log2 fold change was inactive: 0.018.
Regarding PSMA8 (UniProt Q8TAA3), the log2 fold change is inactive: 0.03.
As for QDPR (UniProt P09417), the log2 fold change was inactive: -0.001.
Regarding PSME1 (UniProt Q06323), the log2 fold change was inactive: -0.013.
The same measure, in the same setting: under PSME2 (UniProt Q9UL46) stands inactive: 0.062; under PRTFDC1 (UniProt Q9NRG1), inactive: -0.032.
PSMB1 (UniProt P20618): the log2 fold change is inactive: 0.045.
On the same count and under the same terms, under PTPRA (UniProt P18433) stands inactive: -0.09; under PSMD4 (UniProt P55036), inactive: 0.016.
Regarding PUS7L (UniProt Q9H0K6), the log2 fold change was inactive: -0.012.
Still for that read-out and setting: under PSMD14 (UniProt O00487) stands inactive: 0.013; under PUM2 (UniProt Q8TB72), inactive: 0.004.
For PTPRC (UniProt P08575), the log2 fold change is inactive: 0.04.
As for QTRT2 isoform 4 (UniProt Q9H974), the log2 fold change is inactive: -0.014.
For PUS10 (UniProt Q3MIT2), the log2 fold change is inactive: -0.096.
Regarding PSMG4 isoform 2 (UniProt Q5JS54), the log2 fold change was inactive: 0.033.
Turning to PYCARD (UniProt Q9ULZ3), the log2 fold change is inactive: -0.048.
Consider PSMA7 (UniProt O14818), for which the log2 fold change is inactive: -0.063.
For the target PTDSS2 (UniProt Q9BVG9), the log2 fold change was inactive: -0.026.
As to QSOX2 (UniProt Q6ZRP7), the log2 fold change was inactive: -0.046.
On to PTK7 isoform 6 (UniProt Q13308), for which the log2 fold change is inactive: -0.027.
The same measure, in the same setting: under PYM1 (UniProt Q9BRP8) stands inactive: -0.004; under PSMA1 isoform 2 (UniProt P25786), inactive: -0.002; under PSMA5 (UniProt P28066), inactive: 0.027.
The same measure, in the same setting: under PTCD3 (UniProt Q96EY7) stands inactive: 0.031; under PXN (UniProt P49023), inactive: 0.036.
Regarding PSAP isoform 3 (UniProt P07602), the log2 fold change is inactive: 0.024.

These data come from the supplement of paper PMC10849652.
